Test results taken from patent publication US20030108545A1.
Changes are numbered by the printed parent chain. These are yes or no findings as the source states them, for the method shown. Some entries that bind do so weakly or less than the wild type.

Amino acid sequences for entries named in this document (tags omitted). A change or cut given only in a name is not applied to a line headed by its entry.
UniProt P35968: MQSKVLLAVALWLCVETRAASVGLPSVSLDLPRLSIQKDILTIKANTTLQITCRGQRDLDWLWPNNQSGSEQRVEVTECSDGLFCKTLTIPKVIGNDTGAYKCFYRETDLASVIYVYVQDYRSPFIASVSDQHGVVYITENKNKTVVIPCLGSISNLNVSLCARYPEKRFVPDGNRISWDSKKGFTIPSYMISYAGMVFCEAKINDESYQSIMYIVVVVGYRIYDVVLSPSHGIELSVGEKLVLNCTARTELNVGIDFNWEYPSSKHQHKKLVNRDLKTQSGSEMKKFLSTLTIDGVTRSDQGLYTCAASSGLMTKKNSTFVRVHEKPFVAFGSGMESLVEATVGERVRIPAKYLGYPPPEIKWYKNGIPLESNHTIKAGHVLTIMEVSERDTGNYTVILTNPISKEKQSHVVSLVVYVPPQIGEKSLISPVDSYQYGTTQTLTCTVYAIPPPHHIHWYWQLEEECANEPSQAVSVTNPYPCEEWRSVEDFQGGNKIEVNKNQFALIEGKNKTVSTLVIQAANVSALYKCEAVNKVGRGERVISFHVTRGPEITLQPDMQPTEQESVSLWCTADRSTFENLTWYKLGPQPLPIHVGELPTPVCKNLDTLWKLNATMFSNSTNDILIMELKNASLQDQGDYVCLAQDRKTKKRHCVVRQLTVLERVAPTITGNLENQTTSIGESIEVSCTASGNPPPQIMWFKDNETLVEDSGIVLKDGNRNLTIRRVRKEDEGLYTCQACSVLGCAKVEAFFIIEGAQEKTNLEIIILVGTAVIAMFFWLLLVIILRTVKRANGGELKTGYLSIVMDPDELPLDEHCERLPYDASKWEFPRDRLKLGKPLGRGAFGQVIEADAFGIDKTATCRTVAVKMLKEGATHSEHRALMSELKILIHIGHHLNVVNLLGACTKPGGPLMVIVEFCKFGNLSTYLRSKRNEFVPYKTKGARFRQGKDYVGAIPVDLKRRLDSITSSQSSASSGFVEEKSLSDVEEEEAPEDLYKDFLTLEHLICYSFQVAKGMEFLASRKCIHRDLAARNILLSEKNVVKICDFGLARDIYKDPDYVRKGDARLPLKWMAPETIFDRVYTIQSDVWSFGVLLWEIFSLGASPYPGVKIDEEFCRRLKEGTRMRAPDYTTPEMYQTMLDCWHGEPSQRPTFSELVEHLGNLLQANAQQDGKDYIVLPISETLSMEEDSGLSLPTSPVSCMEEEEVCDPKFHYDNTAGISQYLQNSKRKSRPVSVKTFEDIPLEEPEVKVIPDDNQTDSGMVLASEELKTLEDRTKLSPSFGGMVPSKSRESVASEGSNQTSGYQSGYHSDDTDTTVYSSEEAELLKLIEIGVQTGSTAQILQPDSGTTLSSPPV
UniProt P05187: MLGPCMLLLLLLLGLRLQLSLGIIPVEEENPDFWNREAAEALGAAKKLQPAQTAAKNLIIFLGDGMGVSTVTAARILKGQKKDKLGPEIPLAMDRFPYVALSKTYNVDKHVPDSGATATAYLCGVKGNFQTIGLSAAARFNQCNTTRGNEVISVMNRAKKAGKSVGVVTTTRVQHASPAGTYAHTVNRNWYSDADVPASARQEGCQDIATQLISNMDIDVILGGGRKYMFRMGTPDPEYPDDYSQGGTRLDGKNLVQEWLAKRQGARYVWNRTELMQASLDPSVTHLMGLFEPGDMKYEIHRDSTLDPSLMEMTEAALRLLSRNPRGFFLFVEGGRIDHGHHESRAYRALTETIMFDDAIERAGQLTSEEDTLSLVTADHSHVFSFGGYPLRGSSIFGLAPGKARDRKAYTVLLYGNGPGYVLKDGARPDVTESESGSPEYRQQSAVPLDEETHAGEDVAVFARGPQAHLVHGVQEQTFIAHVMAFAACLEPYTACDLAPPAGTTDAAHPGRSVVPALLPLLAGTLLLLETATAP

B1: human anti-KDR (VEGFR-2) Fab D2C6 (Fab, V domains shown)
VH: EVQLVQSGGGLVKPGGSLRLSCAASGFTFSSYSMNWVRQAPGKGLEWVSSISSSSSYIYYADSVKGRFTISRDNAKNSLYLQMNSLRAEDTAVYYCARVTDAFDIWGQGTMVTVSS
VL: EIVMTQSPATLSLSPGERATLSCRASQSVSSYLAWYQQKPGQAPRLLIYDSSNRATGIPARFSGSGSGTDFTLTISSLEPEDFATYYCLQHNTFPPTFGQGTKVEIK
B2: human anti-KDR (VEGFR-2) Fab D2H2 (Fab, V domains shown)
VH: B1 VH with N77D
VL: DIQLTQSPSSVSASVGDRVTITCRASQGISSRLAWYQQKPGKAPKLLIYAASSLQTGVPSRFSGSGSGTDFTLTISSLQPEDFATYYCQQANRFPPTFGPGTKVDIK
B3: human anti-KDR (VEGFR-2) Fab D1H4 (Fab, V domains shown)
VH: B1 VH
VL: QSALTQPASLSGSPGQSITISCAGTTTDLTYYDLVSWYQQHPGQAPKLVIYDGNKRPSGVSNRFSGSKSGNTASLTISGLQAEDEADYYCNSYVSSRFYVFGTGTKVTVL

The binders below were run against soluble fusion protein KDR-AP (KDR (VEGFR-2) extracellular domain fused to human placental alkaline phosphatase) (human) (UniProt P35968+P05187) (assay: epitope-mapping ELISA, AP fusions captured by anti-AP antibody).

binding	Binder
binds	B1
binds	B2
binds	B3
